PubChem BioAssay AID1224830 – NIAID, 2016
In all, the deposit lists about 18,000 reagents; this is an unselected part. In the full data, about 2,900 (16%) got an active call. 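Calls are made per well; low scores hint the gene aids the LPS response, high scores that it dampens it.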 Entries without a mark were called inactive. Repeated entries: four replicate wells of each siRNA pool. No sequences are given here.

- Screen: 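Regulators of TLR4 signalling towards TNF-alpha in macrophage-like cells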 (primary screen)
- Cell system: human THP-1 monocytic leukaemia cells, TNF dual-luciferase reporter clone, PMA-differentiated to macrophage-like cells
- Knock-down reagent: siRNA pool against human genes, 50 nM
- Duration: LPS for 4 h, given about 3 days after siRNA transfection
- Challenge: bacterial LPS (TLR4 ligand), 10 ng/ml
- Measurement: 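Ratio of firefly to renilla light, scaled to the plate median and expressed as a robust z-score per replicate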
- Direction: TNF reporter robust z-score: higher = stronger TNF reporter response to LPS
- Hit rule: 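a well is active when its z-score exceeds 2.8 or falls below -1.5; control wells carry no call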

gene | TNF reporter robust z-score
GRIN2B | 2.85 (active)
GRIN2B | 1.91
GRIN2B | 0.92
GRIN2B | 0.15
NDUFA2 | -1.35
NDUFA2 | -1.05
NDUFA2 | -0.72
NDUFA2 | 0
MRPS7 | -0.92
MRPS7 | 0.69
MRPS7 | -0.09
MRPS7 | -0.17
GARRE1 | 2.36
GARRE1 | 3.92 (active)
GARRE1 | -0.75
GARRE1 | -0.26
TRIM54 | -0.86
TRIM54 | -0.75
TRIM54 | 0
TRIM54 | -1.8 (active)
PRELID3A | -0.37
PRELID3A | 0.14
PRELID3A | -0.8
PRELID3A | -0.48
LINC03042 | -0.84
LINC03042 | -0.03
LINC03042 | -0.26
LINC03042 | 0.61
AP1B1 | -0.46
AP1B1 | -0.33
AP1B1 | -1.2
AP1B1 | 0.05
MARCHF7 | 0.47
MARCHF7 | 0.7
MARCHF7 | 3.01 (active)
MARCHF7 | 2.48
NCAM2 | 1
NCAM2 | -0.84
NCAM2 | 0.32
NCAM2 | 0.93
OR14I1 | 3.63 (active)
OR14I1 | 3.54 (active)
OR14I1 | 3.68 (active)
OR14I1 | 1.27
RBM45 | 0.98
RBM45 | 0.37
RBM45 | 1.35
RBM45 | 1.24
NDUFS6 | 1.09
NDUFS6 | 0.01
NDUFS6 | 0.14
NDUFS6 | 0.35
NNMT | 0.18
NNMT | -0.23
NNMT | -0.4
NNMT | -0.52
EAF1 | -1.29
EAF1 | -1.42
EAF1 | -1.47
EAF1 | -1.76 (active)
GPD1L | 1.17
GPD1L | 1.13
GPD1L | 0.4
GPD1L | 1.14
USO1 | 0
USO1 | -0.53
USO1 | -0.91
USO1 | -0.46
C5orf22 | -1.12
C5orf22 | -0.2
C5orf22 | -1.08
C5orf22 | -0.47
H2AC19 | 0.35
H2AC19 | 0.47
H2AC19 | 0.11
H2AC19 | 0.55
CCNL1 | -0.11
CCNL1 | 0.39
CCNL1 | 1.99
CCNL1 | 0.26
TMEM219 | -0.78
TMEM219 | -0.16
TMEM219 | -0.9
TMEM219 | -0.34
SARS1 | 0.36
SARS1 | 0.45
SARS1 | 0.47
SARS1 | 0.65
P2RY4 | 0.56
P2RY4 | 0.21
P2RY4 | -0.04
RPL14 | -0.32
RPL14 | -0.62
RPL14 | -1.13
RPL14 | -0.55
PIP4P1 | 0.54
PIP4P1 | 0.97
PIP4P1 | -0.22
PIP4P1 | 2.2
RRAGC | 0.52
RRAGC | 0.66
RRAGC | 0.49
RRAGC | 1.14
TMPRSS2 | 0.17
TMPRSS2 | 1.37
TMPRSS2 | 0.51
TMPRSS2 | 1.28
HIGD2A | 0.94
HIGD2A | 1.18
HIGD2A | 1.64
HIGD2A | 1.26

13 entries from above, set out differently.
gene	TNF reporter robust z-score
P2RY4	-0.04
RPL14	-0.32
RPL14	-0.62
RPL14	-1.13
RPL14	-0.55
PIP4P1	0.54
PIP4P1	0.97
PIP4P1	-0.22
PIP4P1	2.2
RRAGC	0.52
RRAGC	0.66
RRAGC	0.49
RRAGC	1.14
